Primary screen of a compound library

Chains of the proteins cited; added tags and fusions are not shown.
UniProt E9BF75, entry or part of it: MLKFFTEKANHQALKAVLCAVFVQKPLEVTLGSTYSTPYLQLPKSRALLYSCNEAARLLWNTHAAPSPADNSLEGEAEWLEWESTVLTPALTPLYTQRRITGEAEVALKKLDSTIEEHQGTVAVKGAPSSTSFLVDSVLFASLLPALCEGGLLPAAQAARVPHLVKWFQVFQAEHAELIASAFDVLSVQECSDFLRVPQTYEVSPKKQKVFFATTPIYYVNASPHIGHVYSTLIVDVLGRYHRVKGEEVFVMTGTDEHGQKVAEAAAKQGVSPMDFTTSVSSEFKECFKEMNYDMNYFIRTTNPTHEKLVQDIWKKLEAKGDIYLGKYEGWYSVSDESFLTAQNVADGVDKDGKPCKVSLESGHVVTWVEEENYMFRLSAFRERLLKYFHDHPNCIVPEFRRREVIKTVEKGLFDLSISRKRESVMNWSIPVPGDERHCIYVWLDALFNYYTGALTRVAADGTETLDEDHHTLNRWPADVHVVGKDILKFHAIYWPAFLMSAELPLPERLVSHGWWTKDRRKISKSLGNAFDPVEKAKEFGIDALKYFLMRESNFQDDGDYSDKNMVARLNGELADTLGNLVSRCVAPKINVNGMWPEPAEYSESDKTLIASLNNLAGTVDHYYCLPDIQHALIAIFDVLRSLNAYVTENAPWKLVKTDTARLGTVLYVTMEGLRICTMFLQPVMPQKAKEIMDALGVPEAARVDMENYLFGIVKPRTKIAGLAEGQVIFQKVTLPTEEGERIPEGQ

LdMetRS: 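Methionyl-tRNA synthetase (putative), Leishmania donovani (UniProt E9BF75). Primary screen of methionyl-tRNA synthetase; the read-out is not stated. The test concentration is not given. The values are filed as inhibition. Of about 68,000 compounds tested this way, about 24 (0.035%) reached 50% or more in at least one test.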
Mtb heat-shock: 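Assay on Mycobacterium tuberculosis, filed only as a heat shock assay from Cornell; the read-out is not stated. The concentration is filed as 10 mM, unlikely as a test dose, so the dose is not known. Higher reads as stronger inhibition (inferred: compounds with an IC50 in retests scored well above the rest). Size under these conditions: about 69,000 compounds, about 930 of them at 50% or above in at least one test.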

Results are percentages, as filed.
The record does not define 0% and 100%; most values in the screen are far below 50% and negative numbers occur (in some assays of this library far below -100).
The compounds are a random part of those screened.

{"compound": "COc1ccc(CC(=O)N2CCN(Cc3ccco3)C[C@H]2C)cc1OC", "LdMetRS": 13.71, "Mtb heat-shock": -3.562}
{"compound": "CC(C)n1ncc2cc(NC(=O)N3CCC(CO)CC3)cnc21", "LdMetRS": 17.32, "Mtb heat-shock": -6.689}
{"compound": "O=C(O)CSc1nnc(-c2ccco2)n1-c1ccccc1C(F)(F)F", "LdMetRS": 10.78, "Mtb heat-shock": 21.66}
{"compound": "CN(Cc1cc2n(n1)CCCNC2)Cc1ccno1", "LdMetRS": 13.53, "Mtb heat-shock": -18.22}
{"compound": "CCN1CC(C(=O)NCc2nc(C3CCCCC3)no2)CC1=O", "stereo": "stereo unspecified", "LdMetRS": 4.902, "Mtb heat-shock": -18.49}
{"compound": "NC(=O)CN1CCCCC1c1nc(N)ncc1-c1cccc(F)c1", "stereo": "stereo unspecified", "LdMetRS": 10.36, "Mtb heat-shock": -3.676}
{"compound": "Cc1nn(-c2ccc(C(=O)O)cc2)c2c1C(C(F)(F)F)SCC(=O)N2", "stereo": "stereo unspecified", "LdMetRS": 11.86, "Mtb heat-shock": 4.866}
{"compound": "Cc1noc(C)c1S(=O)(=O)NC(=O)COc1ccc(C(C)C)cc1", "LdMetRS": 4.738, "Mtb heat-shock": 13}
{"compound": "CCN(CC1CCCN(CCc2cccc(OC)c2)C1)C(=O)CN(C)C", "stereo": "stereo unspecified", "LdMetRS": 1.083, "Mtb heat-shock": -5.411}
{"compound": "CC(C)n1[nH]c(=O)c2c1NC(=O)CC2c1ccncc1", "stereo": "stereo unspecified", "LdMetRS": 11.93, "Mtb heat-shock": -15.39}
{"compound": "O=C(CC1CCCC1)N1CCOC(c2nc(-c3ncccn3)no2)C1", "stereo": "stereo unspecified", "LdMetRS": 11.46, "Mtb heat-shock": -5.301}
{"compound": "[H][C@@]12COC[C@@H](CC(=O)Nc3cnccn3)[C@]1([H])CN(C1CCOCC1)C2", "Mtb heat-shock": -8.163}
{"compound": "O=C(c1onc2ccccc12)N1CCC2(CCCNC2)C1", "stereo": "stereo unspecified", "LdMetRS": 12.77, "Mtb heat-shock": -8.888}
{"compound": "[H][C@@]12COC[C@]1(COc1nccc(C)n1)CN(C(=O)c1ccnn1C)C2", "Mtb heat-shock": -8.31}
{"compound": "O=C(C1CCOCC1)N1CCc2ncc(CN3CCCCC3)n2CC1", "LdMetRS": 13.93, "Mtb heat-shock": -1.034}
{"compound": "Cc1nc(CN2C(=O)CCC23CCN(c2ncccc2C)CC3)cs1", "LdMetRS": 7.397, "Mtb heat-shock": -30.2}
{"compound": "CN1C(=O)C2(NC(=O)c3ccccc3O2)c2ccccc21", "stereo": "stereo unspecified", "LdMetRS": 18.87, "Mtb heat-shock": 13.69}
{"compound": "Cc1nccn1-c1ncccc1NC(=O)CCOCC(C)C", "LdMetRS": 6.475, "Mtb heat-shock": 2.316}
{"compound": "CCSc1nnc(CCNC(=O)OC(C)(C)C)o1", "LdMetRS": 5.758, "Mtb heat-shock": 26.83}
{"compound": "CN1CC2(CCN(Cc3cccnc3)CC2)c2cccc(F)c21", "LdMetRS": 13.78}
{"compound": "[H][C@]12CC[C@]([H])(CN(C3CCOCC3)C1)N(Cc1cnc(SCC)nc1)C2", "Mtb heat-shock": 33.7}
{"compound": "COc1cc(C(=O)N2CCCS2(=O)=O)ccc1OC(C)C", "LdMetRS": 12.43, "Mtb heat-shock": -25.74}
{"compound": "CC(NC(=O)CCC(=O)c1cccs1)c1nnc2n1CCC2", "stereo": "stereo unspecified", "LdMetRS": 18.33, "Mtb heat-shock": -10.6}
{"compound": "COc1ccc(C2CC(=O)Nc3c2nc2n3CCCC2)cc1OC", "stereo": "stereo unspecified", "LdMetRS": 8.889, "Mtb heat-shock": -11.4}
{"compound": "COc1cccc(NC(=O)NC2(c3noc(CN(C)C)n3)CCCC2)c1", "LdMetRS": 15.74, "Mtb heat-shock": -1.427}

The last 2 entries again:

Compound	LdMetRS	Mtb heat-shock
COc1ccc(C2CC(=O)Nc3c2nc2n3CCCC2)cc1OC (stereo unspecified)	8.889%	-11.4%
COc1cccc(NC(=O)NC2(c3noc(CN(C)C)n3)CCCC2)c1	15.74%	-1.427%

Measurements from “University of Dundee, Small-Polar-MMV Screening Library” (2021), ChEMBL document CHEMBL3988442.